# Measured values as given in ChEMBL document CHEMBL1154797, “Synthesis, anti-bacterial and anti-fungal activities of some novel Schiff bases containing 2,4-disubstituted thiazole ring” (2010).
# Tests used:
# Format in all cases: functional
# Candida albicans [1] = tested on: Candida albicans; for DIZ: test concentration or dose not given here
# Aspergillus flavus [2] = assay: Antifungal activity against Aspergillus flavus
# Candida tropicalis [3] = tested on: Candida tropicalis; for DIZ: test concentration or dose not given here
# Cryptococcus neoformans [4] = tested on: Cryptococcus neoformans; for DIZ: test concentration or dose not given here
# Candida albicans [5] = assay: Antifungal activity against Candida albicans
# Aspergillus flavus [6] = tested on: Aspergillus flavus; for DIZ: test concentration or dose not given here
# Candida tropicalis [7] = assay: Antifungal activity against Candida tropicalis
# Cryptococcus neoformans [8] = assay: Antifungal activity against Cryptococcus neoformans
smiles,measurement,setting,value
COc1ccc(-c2csc(NN=C3CCCCC3)n2)cc1,diameter of the inhibition zone (DIZ),Candida albicans [1],16 mm
same,MIC,Aspergillus flavus [2],12.5 µg/mL
same,diameter of the inhibition zone (DIZ),Candida tropicalis [3],16 mm
same,diameter of the inhibition zone (DIZ),Cryptococcus neoformans [4],17 mm
same,MIC,Candida albicans [5],12.5 µg/mL
same,diameter of the inhibition zone (DIZ),Aspergillus flavus [6],18 mm
same,MIC,Candida tropicalis [7],12.5 µg/mL
same,MIC,Cryptococcus neoformans [8],12.5 µg/mL
